# Residue numbers refer to the chain shown, from its start. No constants are given. Whether binding was seen depends on the method and setting. Some results given as binding are weak or reduced against the parent protein; the word gives no strength.
# The chains behind the UniProt entries cited, without tags or fusion partners. Where a name states a change or a piece, a line headed by the entry shows the natural chain unless it says otherwise. Residues count along the entry.
# UniProt P15941, residues 1110-1255: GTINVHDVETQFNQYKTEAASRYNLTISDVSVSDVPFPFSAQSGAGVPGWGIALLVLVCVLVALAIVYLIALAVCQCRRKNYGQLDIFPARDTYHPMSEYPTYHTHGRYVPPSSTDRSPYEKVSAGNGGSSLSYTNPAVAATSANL
# B1: MNC2-28-3z (CAR comprising a huMNC2 scFv, a CD28 co-stimulatory domain and a CD3ζ signaling domain) (protein)
# chain: EVQLVESGGGLVKPGGSLRLSCAASGFTFSGYAMSWVRQAPGKGLEWVSTISSGGTYIYYPDSVKGRFTISRDNAKNSLYLQMNSLRAEDTAVYYCARLGGDNYYEYFDVWGKGTTVTVSSGGGGSGGGGSGGGGSDIVLTQSPASLAVSPGQRATITCRASKSVSTSGYSYMHWYQQKPGQPPKLLIYLASNLESGVPARFSGSGSGTDFTLTINPVEANDTANYYCQHSRELPFTFGGGTKVEIKRTKHLCPSPLFPGPSKPFWVLVVVGGVLACYSLLVTVAFIIFWVRSKRSRLLHSDYMNMTPRRPGPTRKHYQPYAPPRDFAAYRSRVKFSRSADAPAYKQGQNQLYNELNLGRREEYDVLDKRRGRDPEMGGKPRRKNPQEGLYNELQKDKMAEAYSEIGMKGERRRGKGHDGLYQGLSTATKDTYDALHMQALPPR
# B2: MNC2-28-1XX (CAR comprising a huMNC2 scFv, a CD28 co-stimulatory domain and a CD3ζ with Tyrosines in ITAM2 and ITAM3 mutated to Phenylalanine) (protein)
# chain: B1 chain with Y391F, Y403F, Y422F, Y433F
# Target: MUC1* on T47D breast cancer cells (UniProt P15941)
# Assay: co-culture of CAR T cells with T47D cells; binding told in words, not measured
row,binding,Binder
1,binds,B1
2,binds,B2

# From patent publication US20250276016A1
